This note sets out measurements from publication PMC8960830.

The test system of data set [1] is S9.6 Fab WT. Put plainly: fluorescence polarization. Particulars: FP: 25 mM Tris-HCl pH 7.5, 50 mM NaCl, 2 mM MgCl2, 21 C, ~5 nM FAM duplex, SEC-MALS 150 mM NaCl, recombinant protein, protein details: HC C-terminal His6. (Polarisation of emitted light reports the rotation of a fluorescent probe.)
The test system of the next data set is S9.6 Fab HC_Y100A. Put plainly: fluorescence polarization. To be noted: no defect; FP: 25 mM Tris-HCl pH 7.5, 50 mM NaCl, 2 mM MgCl2, 21 C, ~5 nM FAM duplex; SEC-MALS 150 mM NaCl; recombinant protein; protein details: HC C-terminal His6; DNA:RNA hybrid; letters put together from the description.
Another data set deals with S9.6 Fab HC_R104A. Put plainly: fluorescence polarization. To be noted: complete ablation; FP: 25 mM Tris-HCl pH 7.5, 50 mM NaCl, 2 mM MgCl2, 21 C, ~5 nM FAM duplex; SEC-MALS 150 mM NaCl; recombinant protein; protein details: HC C-terminal His6; DNA:RNA hybrid; letters put together from the description.
The subject of another data set is S9.6 Fab HC_N55A. Put plainly: fluorescence polarization. Particulars: negligible impact; FP: 25 mM Tris-HCl pH 7.5, 50 mM NaCl, 2 mM MgCl2, 21 C, ~5 nM FAM duplex; SEC-MALS 150 mM NaCl; recombinant protein; protein details: HC C-terminal His6; DNA:RNA hybrid; letters put together from the description.
Another data set has as its system S9.6 Fab HC_S31L. Put plainly: fluorescence polarization. Particulars: N.D., abolished; FP: 25 mM Tris-HCl pH 7.5, 50 mM NaCl, 2 mM MgCl2, 21 C, ~5 nM FAM duplex; SEC-MALS 150 mM NaCl; recombinant protein; protein details: HC C-terminal His6; DNA:RNA hybrid; letters put together from the description.
A further data set has as its system S9.6 Fab HC_N55R. Put plainly: fluorescence polarization. To be noted: negligible impact; FP: 25 mM Tris-HCl pH 7.5, 50 mM NaCl, 2 mM MgCl2, 21 C, ~5 nM FAM duplex; SEC-MALS 150 mM NaCl; recombinant protein; protein details: HC C-terminal His6; DNA:RNA hybrid; letters put together from the description.
For another data set, the system named is S9.6 Fab HC_Y101A. Put plainly: fluorescence polarization. To be noted: FP: 25 mM Tris-HCl pH 7.5, 50 mM NaCl, 2 mM MgCl2, 21 C, ~5 nM FAM duplex; SEC-MALS 150 mM NaCl; recombinant protein; protein details: HC C-terminal His6; DNA:RNA hybrid; letters put together from the description.
In a further data set the test system is S9.6 scFv. Put plainly: fluorescence polarization. Particulars: affinity similar to Fab; FP: 25 mM Tris-HCl pH 7.5, 50 mM NaCl, 2 mM MgCl2, 21 C, ~5 nM FAM duplex; SEC-MALS 150 mM NaCl; recombinant protein; DNA:RNA hybrid; letters put together from the description.
A further data set has as its system S9.6 Fab HC_S103A. Put plainly: fluorescence polarization. Particulars: contact dispensable; FP: 25 mM Tris-HCl pH 7.5, 50 mM NaCl, 2 mM MgCl2, 21 C, ~5 nM FAM duplex; SEC-MALS 150 mM NaCl; recombinant protein; protein details: HC C-terminal His6; DNA:RNA hybrid; letters put together from the description.
The test system of data set [2] is S9.6 Fab WT. Put plainly: crystal structure. To be noted: recombinant protein; protein details: HC C-terminal His6; DNA:RNA hybrid; letters put together from the description.
In data set [3] the test system is S9.6 Fab WT. Put plainly: SEC-MALS. Particulars: 150 mM NaCl, recombinant protein, protein details: HC C-terminal His6. On the technique in general: In gel filtration, larger molecules generally elute earlier.
In data set [4] the test system is S9.6 Fab WT. Put plainly: competition with a labelled probe. Particulars: no competition at 50,000-fold excess; recombinant protein; protein details: HC C-terminal His6.
Data set [5] has as its system S9.6 Fab WT. Put plainly: ITC. Particulars: only insignificant heat; recombinant protein; protein details: HC C-terminal His6; letters put together from the description.
[6] abbreviates: only weak binding at 40% GC or less, label: 5' FAM, DNA:RNA hybrid, letters put together from the description.
Setting [7] is: Kd of three hybrids 78-203 nM, label: 5' FAM, DNA:RNA hybrid, letters put together from the description.
The mark [8] stands for this setting: Kd of three dsRNAs 1.5-5.4 uM, label: 5' FAM, letters put together from the description.

The exact form of at least one protein or probe is not confirmed. For some of these results: No signal at the amounts used counts as a negative. For some of these results: At least one verdict was read from the data and is not stated in words by the source. For some of these results: A weaker result is weaker than the reference pair of the same experiment.

Turning to “TATACATATA / UAUAUGUAUA [10-bp hybrid 10% GC]”, the binding result in the data set with S9.6 Fab WT [1] (setting [6]) is on record as “binds more weakly”.

For the sequence “TATATATATATATAT / AUAUAUAUAUAUAUA [15-bp hybrid 0% GC]”, the binding result with S9.6 Fab WT [1] (essentially no binding, label: 5' FAM, DNA:RNA hybrid, letters put together from the description) is recorded as “no binding”. In the case of “GGCACCTGCATTT / AAAUGCAGGUGCC [B-actin terminator 13-bp hybrid]”, the binding result in the data set with S9.6 Fab WT [1] (setting [7]) is given as “binds”. Regarding “CGTCTCAGACAAG / CUUGUCUGAGACG [13-bp hybrid dG4C:rC10G]”, in the data set with S9.6 Fab WT [1] (negligible impact, label: 5' FAM, DNA:RNA hybrid, letters put together from the description), the binding result is “binds”.

As for “CGTGTCAGACAAG / CUUGUCUGACACG [13-bp DNA-RNA hybrid]”, the binding result was “binds” in the data set with S9.6 Fab HC_Y100A; “no binding” in the data set with S9.6 Fab HC_R104A; “binds” in the data set on S9.6 Fab HC_N55A; “no binding” with S9.6 Fab HC_S31L; “binds” in the data set on S9.6 Fab HC_N55R; “no binding” with S9.6 Fab HC_Y101A. In addition, the binding result with S9.6 scFv is reported as “binds”; with S9.6 Fab HC_S103A, “binds”; in the data set with S9.6 Fab WT [2], “binds”; with S9.6 Fab WT [3] (1:1 complex, DNA:RNA hybrid, letters put together from the description), “binds”. With “GCAGAGGAGGCTA / UAGCCUCCUCUGC [FUS 13-bp hybrid]”, in the data set on S9.6 Fab WT [1] (setting [7]), the binding result is listed as “binds”.

“UAGCCUCCUCUGC / GCAGAGGAGGCUA [FUS 13-bp dsRNA]”: in the data set on S9.6 Fab WT [1] (setting [8]), the binding result was “binds more weakly”. With “CGTGTCAGACAAG (double strand) [13-bp dsDNA]”, the binding result with S9.6 Fab WT [4], with S9.6 Fab WT [1] (N.D.) and with S9.6 Fab WT [3] was “no binding” each time. With “TATATATATA / UAUAUAUAUA [10-bp hybrid 0% GC]”, in the data set with S9.6 Fab WT [1] (setting [6]), the binding result was “binds more weakly”. On to “GGCACCTGCATTT (double strand) [B-actin terminator 13-bp dsDNA]”, for which the binding result in the data set on S9.6 Fab WT [1] (label: 5' FAM) is “no binding”. As for “TAGACAGACA / UGUCUGUCUA [10-bp hybrid 40% GC]”, the binding result in the data set with S9.6 Fab WT [1] (N.D. in table, only weak binding at 40% GC or less, label: 5' FAM, DNA:RNA hybrid, letters put together from the description) is listed as “binds more weakly”. Take “TATACAGATA / UAUCUGUAUA [10-bp hybrid 20% GC]”: in the data set on S9.6 Fab WT [1] (setting [6]), the binding result is “binds more weakly”. On to “CUUGUCUGACACG / CGUGUCAGACAAG [13-bp dsRNA]”, for which the binding result in the data set with S9.6 Fab WT [3] (letters put together from the description) and with S9.6 Fab WT [5] was “no binding” each time. As for “TAGACAGATA / UAUCUGUCUA [10-bp hybrid 30% GC]”, the binding result with S9.6 Fab WT [1] (setting [6]) is recorded as “binds more weakly”. “GCAGAGGAGGCTA (double strand) [FUS 13-bp dsDNA]”: the binding result in the data set on S9.6 Fab WT [1] (label: 5' FAM) is recorded as “no binding”. Regarding “AAAUGCAGGUGCC / GGCACCUGCAUUU [B-actin terminator 13-bp dsRNA]”, the binding result with S9.6 Fab WT [1] (setting [8]) is on record as “binds more weakly”.
